Experimental data reported in paper PMC4464076.
No constants are given. Whether binding was seen depends on the method and setting. In cells and extracts the contact can be indirect. Some entries that bind do so weakly or less than the wild type. For some of these results: Tags and fused reporters may be left off the sequences shown. Each block holds one molecule with its values, some of them ahead of it.

By UniProt entry, the sequences of proteins in these tests, tags left out. Where a name states a change or a piece, a line headed by the entry shows the natural chain unless it says otherwise.
UniProt Q15386: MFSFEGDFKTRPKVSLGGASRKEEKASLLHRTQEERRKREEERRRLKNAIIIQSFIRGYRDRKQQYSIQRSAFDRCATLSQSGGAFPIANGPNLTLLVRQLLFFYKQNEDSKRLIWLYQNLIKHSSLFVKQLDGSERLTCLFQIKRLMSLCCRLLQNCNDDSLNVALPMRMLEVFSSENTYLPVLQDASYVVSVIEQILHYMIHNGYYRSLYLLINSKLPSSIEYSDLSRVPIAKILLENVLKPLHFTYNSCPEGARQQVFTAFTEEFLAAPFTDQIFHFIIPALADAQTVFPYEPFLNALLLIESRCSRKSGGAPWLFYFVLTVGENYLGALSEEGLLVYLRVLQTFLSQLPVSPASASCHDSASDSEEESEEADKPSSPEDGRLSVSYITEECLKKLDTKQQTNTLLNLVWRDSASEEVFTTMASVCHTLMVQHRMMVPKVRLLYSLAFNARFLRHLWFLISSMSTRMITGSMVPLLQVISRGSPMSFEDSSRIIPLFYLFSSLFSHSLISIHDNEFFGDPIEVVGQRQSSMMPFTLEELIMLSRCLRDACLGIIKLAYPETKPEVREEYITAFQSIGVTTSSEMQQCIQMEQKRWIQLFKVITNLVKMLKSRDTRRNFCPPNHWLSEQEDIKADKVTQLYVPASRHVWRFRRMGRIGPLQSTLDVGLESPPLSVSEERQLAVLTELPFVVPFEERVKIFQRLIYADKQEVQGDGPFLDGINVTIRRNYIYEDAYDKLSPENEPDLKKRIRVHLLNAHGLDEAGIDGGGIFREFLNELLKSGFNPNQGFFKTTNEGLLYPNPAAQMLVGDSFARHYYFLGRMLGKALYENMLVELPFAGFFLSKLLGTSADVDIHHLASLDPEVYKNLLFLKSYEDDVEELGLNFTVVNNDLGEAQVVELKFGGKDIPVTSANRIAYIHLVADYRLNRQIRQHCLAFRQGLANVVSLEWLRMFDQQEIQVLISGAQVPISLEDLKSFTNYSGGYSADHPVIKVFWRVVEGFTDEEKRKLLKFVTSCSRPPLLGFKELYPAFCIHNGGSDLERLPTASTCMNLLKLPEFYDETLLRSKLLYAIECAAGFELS

How the values were obtained:
V5-tagged ANXA7 (human) = target: T1, V5-tagged ANXA7 (human) (UniProt P20073); test: co-IP; 293T cells transfected with Flag-UBE3C and V5-ANXA7; reciprocal immunoprecipitation with anti-Flag and anti-V5, immunoblotting
T1 sequence: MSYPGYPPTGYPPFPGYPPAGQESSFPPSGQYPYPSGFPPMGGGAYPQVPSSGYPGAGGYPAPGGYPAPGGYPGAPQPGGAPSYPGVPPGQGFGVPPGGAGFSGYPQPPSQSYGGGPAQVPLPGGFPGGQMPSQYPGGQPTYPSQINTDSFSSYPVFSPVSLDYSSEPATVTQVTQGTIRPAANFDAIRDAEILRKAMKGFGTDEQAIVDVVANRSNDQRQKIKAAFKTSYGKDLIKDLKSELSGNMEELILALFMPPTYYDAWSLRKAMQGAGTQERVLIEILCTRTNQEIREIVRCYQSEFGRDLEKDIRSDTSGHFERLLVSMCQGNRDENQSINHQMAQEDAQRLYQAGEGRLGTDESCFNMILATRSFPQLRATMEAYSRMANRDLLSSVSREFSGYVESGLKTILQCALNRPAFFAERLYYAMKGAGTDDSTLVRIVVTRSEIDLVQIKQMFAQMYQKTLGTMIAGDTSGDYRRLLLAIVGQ

[1] = target: T2, Annexin A7 (ANXA7), endogenous in glioma cells (human (endogenous in U87, U251 and TJ899 glioblastoma cells)) (UniProt P20073); test: co-IP; endogenous proteins in glioma cell lysate (10 mM Tris pH 7.5, 150 mM NaCl, 1 mM CaCl2, 1 mM MgCl2, 1% Brij 97, 4 °C); immunoprecipitation with UBE3C or ANXA7 antibodies, immunoblotting
T2 sequence: T1 sequence

[2] = target: Flag-tagged UBE3C (human) (UniProt Q15386); test: co-IP; 293T cells transfected with Flag-UBE3C and V5-ANXA7; reciprocal immunoprecipitation with anti-Flag and anti-V5, immunoblotting
[3] = target: Ubiquitin-protein ligase E3C (UBE3C), endogenous in glioma cells (human (endogenous in U87, U251 and TJ899 glioblastoma cells)) (UniProt Q15386); test: co-IP; endogenous proteins in glioma cell lysate (10 mM Tris pH 7.5, 150 mM NaCl, 1 mM CaCl2, 1 mM MgCl2, 1% Brij 97, 4 °C); immunoprecipitation with UBE3C or ANXA7 antibodies, immunoblotting

binding (V5-tagged ANXA7 (human)): binds
Molecule: Flag-tagged UBE3C (from UniProt Q15386 1-1083) (enzyme)

binding [1]: binds
Molecule: Ubiquitin-protein ligase E3C (UBE3C), endogenous in glioma cells (from UniProt Q15386 1-1083) (enzyme)

binding [2]: binds
B1: V5-tagged ANXA7 (protein, UniProt P20073 1-488)
chain: T1 sequence

binding [3]: binds
B2: Annexin A7 (ANXA7), endogenous in glioma cells (protein, UniProt P20073 1-488)
chain: T1 sequence
